At least one peptide structure holds a part that was inferred or is arguable (an end, a ring closure or a residue). For at least one compound, name, drawing or mass did not settle the structure.
Molecular target: human insulin receptor (Homo sapiens, UniProt P06213)
Test: Insulin receptor binding, SPA (Scintillation Proximity Assay) microtiterplate antibody capture assay
Settings: binding affinity relative to that of human insulin; purified recombinant human insulin receptor minus exon 11; A14 Tyr[125I]-human insulin tracer

Protein sequences, listed by entry. Tags and fused reporters are not part of them. Residues count along the entry.
UniProt P06213, 28-746 isoform P06213-2 limits assumed: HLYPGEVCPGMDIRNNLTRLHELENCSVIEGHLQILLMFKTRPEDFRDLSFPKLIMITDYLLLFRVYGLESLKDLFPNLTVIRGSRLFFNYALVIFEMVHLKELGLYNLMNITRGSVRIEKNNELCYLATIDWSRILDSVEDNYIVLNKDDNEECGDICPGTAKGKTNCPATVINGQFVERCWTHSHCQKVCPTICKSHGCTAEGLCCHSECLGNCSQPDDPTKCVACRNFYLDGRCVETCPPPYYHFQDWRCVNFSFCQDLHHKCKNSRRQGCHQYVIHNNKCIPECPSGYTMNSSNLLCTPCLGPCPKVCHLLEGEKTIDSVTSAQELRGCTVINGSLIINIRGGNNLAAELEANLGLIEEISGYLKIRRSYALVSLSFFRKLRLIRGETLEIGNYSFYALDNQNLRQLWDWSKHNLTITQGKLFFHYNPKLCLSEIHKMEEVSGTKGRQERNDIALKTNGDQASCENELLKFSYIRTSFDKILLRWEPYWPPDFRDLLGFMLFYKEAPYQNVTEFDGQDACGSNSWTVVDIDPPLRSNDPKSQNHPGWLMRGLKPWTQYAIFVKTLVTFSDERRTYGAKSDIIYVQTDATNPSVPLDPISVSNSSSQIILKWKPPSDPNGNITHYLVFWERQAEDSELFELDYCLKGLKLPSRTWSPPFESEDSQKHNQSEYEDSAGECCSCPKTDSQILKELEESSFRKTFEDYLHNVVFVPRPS
UniProt P06213, 763-1382 partner limits assumed: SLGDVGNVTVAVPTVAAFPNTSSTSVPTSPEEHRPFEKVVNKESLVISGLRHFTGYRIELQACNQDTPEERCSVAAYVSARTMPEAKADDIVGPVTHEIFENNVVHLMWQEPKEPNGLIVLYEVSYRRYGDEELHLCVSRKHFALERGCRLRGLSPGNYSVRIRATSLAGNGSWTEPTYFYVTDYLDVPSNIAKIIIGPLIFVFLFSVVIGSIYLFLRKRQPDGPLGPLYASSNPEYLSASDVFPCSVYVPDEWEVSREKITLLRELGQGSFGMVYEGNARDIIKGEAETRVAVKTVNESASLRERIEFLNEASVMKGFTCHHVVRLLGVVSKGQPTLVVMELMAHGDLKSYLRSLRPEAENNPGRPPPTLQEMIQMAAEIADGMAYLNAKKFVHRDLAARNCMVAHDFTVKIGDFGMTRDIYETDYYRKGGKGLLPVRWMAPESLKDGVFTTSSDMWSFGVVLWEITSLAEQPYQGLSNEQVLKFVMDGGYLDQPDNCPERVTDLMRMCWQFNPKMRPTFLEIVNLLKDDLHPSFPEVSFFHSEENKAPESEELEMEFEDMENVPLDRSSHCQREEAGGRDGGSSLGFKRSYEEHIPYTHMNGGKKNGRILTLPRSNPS

**Q.** Which “Relative insulin receptor binding” value does the source give for `CC[C@H](C)[C@H](NC(=O)CN)C(=O)N[C@H](C(=O)N[C@@H](CCC(=O)O)C(=O)N[C@@H](CCC(N)=O)C(=O)N[C@H]1CSSC[C@@H]2NC(=O)[C@H]([C@@H](C)CC)NC(=O)[C@H](CO)NC(=O)[C@H]([C@@H](C)O)NC(=O)[C@H](CSSC[C@H](NC(=O)[C@H](CC(C)C)NC(=O)[C@H](Cc3c[nH]cn3)NC(=O)[C@H](CCC(N)=O)NC(=O)[C@H](CC(N)=O)NC(=O)[C@@H](NC(=O)[C@H](Cc3ccccc3)NC(=O)CNC(=O)CNC(=O)CNC(=O)CNC(=O)CNC(=O)CNC(=O)CNC(=O)CNC(=O)CNC(=O)CNC(=O)CNC(=O)CNC(=O)CNC(=O)CNC(=O)CNC(=O)CNC(=O)CNC(=O)CN)C(C)C)C(=O)NCC(=O)N[C@@H](CO)C(=O)N[C@@H](Cc3c[nH]cn3)C(=O)N[C@@H](CC(C)C)C(=O)N[C@@H](C(C)C)C(=O)N[C@@H](CCC(=O)O)C(=O)N[C@@H](C)C(=O)N[C@@H](CC(C)C)C(=O)N[C@@H](Cc3ccc(O)cc3)C(=O)N[C@@H](CC(C)C)C(=O)N[C@@H](C(C)C)C(=O)N[C@H](C(=O)NCC(=O)N[C@@H](CCC(=O)O)C(=O)N[C@@H](CCCNC(=N)N)C(=O)NCC(=O)N[C@@H](Cc3ccccc3)C(=O)N[C@@H](Cc3c[nH]cn3)C(=O)N[C@@H](Cc3ccc(O)cc3)C(=O)N[C@H](C(=O)N3CCC[C@H]3C(=O)N[C@@H](CCCCN)C(=O)O)[C@@H](C)O)CSSC[C@@H](C(=O)N[C@@H](CCC(N)=O)C(=O)NCC(=O)NCC(=O)NCC(=O)NCC(=O)NCC(=O)NCC(=O)NCC(=O)NCC(=O)NCC(=O)NCC(=O)NCC(=O)NCC(=O)NCC(=O)NCC(=O)NCC(=O)NCC(=O)NCC(=O)NCC(=O)NCC(=O)NCC(=O)NCC(=O)NCC(=O)NCC(=O)NCC(=O)O)NC(=O)[C@H](Cc3ccc(O)cc3)NC(=O)[C@H](CC(N)=O)NC(=O)[C@H](CCC(=O)O)NC(=O)[C@H](CC(C)C)NC(=O)[C@H](CCC(N)=O)NC(=O)[C@H](CCC(=O)O)NC(=O)[C@H](CC(C)C)NC(=O)[C@H](CO)NC2=O)NC1=O)C(C)C` [Example 16, A14E, A21Q, A22-A45G, B(-18)-(-1)G, B25H, desB30 Human Insulin] here?
**A.** 7.2%

**Q.** With `CC[C@H](C)[C@H](NC(=O)CN)C(=O)N[C@H](C(=O)N[C@@H](CCC(=O)O)C(=O)N[C@@H](CCC(N)=O)C(=O)N[C@H]1CSSC[C@@H]2NC(=O)[C@H]([C@@H](C)CC)NC(=O)[C@H](CO)NC(=O)[C@H]([C@@H](C)O)NC(=O)[C@H](CSSC[C@H](NC(=O)[C@H](CC(C)C)NC(=O)[C@H](Cc3c[nH]cn3)NC(=O)[C@H](CCC(N)=O)NC(=O)[C@H](CC(N)=O)NC(=O)[C@@H](NC(=O)[C@H](Cc3ccccc3)NC(=O)CNC(=O)CNC(=O)CNC(=O)CNC(=O)CNC(=O)CNC(=O)CNC(=O)CNC(=O)CNC(=O)CNC(=O)CNC(=O)CN)C(C)C)C(=O)NCC(=O)N[C@@H](CO)C(=O)N[C@@H](Cc3c[nH]cn3)C(=O)N[C@@H](CC(C)C)C(=O)N[C@@H](C(C)C)C(=O)N[C@@H](CCC(=O)O)C(=O)N[C@@H](C)C(=O)N[C@@H](CC(C)C)C(=O)N[C@@H](Cc3ccc(O)cc3)C(=O)N[C@@H](CC(C)C)C(=O)N[C@@H](C(C)C)C(=O)N[C@H](C(=O)NCC(=O)N[C@@H](CCC(=O)O)C(=O)N[C@@H](CCCNC(=N)N)C(=O)NCC(=O)N[C@@H](Cc3ccccc3)C(=O)N[C@@H](Cc3c[nH]cn3)C(=O)N[C@@H](Cc3ccc(O)cc3)C(=O)N[C@H](C(=O)N3CCC[C@H]3C(=O)N[C@@H](CCCCN)C(=O)O)[C@@H](C)O)CSSC[C@@H](C(=O)N[C@@H](CCC(N)=O)C(=O)NCC(=O)NCC(=O)NCC(=O)NCC(=O)NCC(=O)NCC(=O)NCC(=O)NCC(=O)NCC(=O)NCC(=O)NCC(=O)NCC(=O)NCC(=O)NCC(=O)NCC(=O)NCC(=O)NCC(=O)NCC(=O)NCC(=O)NCC(=O)NCC(=O)NCC(=O)NCC(=O)NCC(=O)O)NC(=O)[C@H](Cc3ccc(O)cc3)NC(=O)[C@H](CC(N)=O)NC(=O)[C@H](CCC(=O)O)NC(=O)[C@H](CC(C)C)NC(=O)[C@H](CCC(N)=O)NC(=O)[C@H](CCC(=O)O)NC(=O)[C@H](CC(C)C)NC(=O)[C@H](CO)NC2=O)NC1=O)C(C)C` [Example 15, A14E, A21Q, A22-A45G, B(-12)-(-1)G, B25H, desB30 Human Insulin] as the compound, how does the “Relative insulin receptor binding” value read?
**A.** 11%

**Q.** `CC[C@H](C)[C@H](NC(=O)CN)C(=O)N[C@H](C(=O)N[C@@H](CCC(=O)O)C(=O)N[C@@H](CCC(N)=O)C(=O)N[C@H]1CSSC[C@@H]2NC(=O)[C@H]([C@@H](C)CC)NC(=O)[C@H](CO)NC(=O)[C@H]([C@@H](C)O)NC(=O)[C@H](CSSC[C@H](NC(=O)[C@H](CC(C)C)NC(=O)[C@H](Cc3c[nH]cn3)NC(=O)[C@H](CCC(N)=O)NC(=O)[C@H](CC(N)=O)NC(=O)[C@@H](NC(=O)[C@H](Cc3ccccc3)NC(=O)CNC(=O)CNC(=O)CNC(=O)CNC(=O)CNC(=O)CNC(=O)CNC(=O)CNC(=O)CNC(=O)CNC(=O)CNC(=O)CNC(=O)CNC(=O)CNC(=O)CNC(=O)CNC(=O)CNC(=O)CN)C(C)C)C(=O)NCC(=O)N[C@@H](CO)C(=O)N[C@@H](Cc3c[nH]cn3)C(=O)N[C@@H](CC(C)C)C(=O)N[C@@H](C(C)C)C(=O)N[C@@H](CCC(=O)O)C(=O)N[C@@H](C)C(=O)N[C@@H](CC(C)C)C(=O)N[C@@H](Cc3ccc(O)cc3)C(=O)N[C@@H](CC(C)C)C(=O)N[C@@H](C(C)C)C(=O)N[C@H](C(=O)NCC(=O)N[C@@H](CCC(=O)O)C(=O)N[C@@H](CCCNC(=N)N)C(=O)NCC(=O)N[C@@H](Cc3ccccc3)C(=O)N[C@@H](Cc3ccccc3)C(=O)N[C@@H](Cc3ccc(O)cc3)C(=O)N[C@H](C(=O)N3CCC[C@H]3C(=O)N[C@@H](CCCCN)C(=O)O)[C@@H](C)O)CSSC[C@@H](C(=O)N[C@@H](CCC(N)=O)C(=O)NCC(=O)NCC(=O)NCC(=O)NCC(=O)NCC(=O)NCC(=O)NCC(=O)NCC(=O)NCC(=O)NCC(=O)NCC(=O)NCC(=O)NCC(=O)NCC(=O)NCC(=O)NCC(=O)NCC(=O)NCC(=O)NCC(=O)NCC(=O)NCC(=O)NCC(=O)NCC(=O)NCC(=O)O)NC(=O)[C@H](Cc3ccc(O)cc3)NC(=O)[C@H](CC(N)=O)NC(=O)[C@H](CCC(=O)O)NC(=O)[C@H](CC(C)C)NC(=O)[C@H](CCC(N)=O)NC(=O)[C@H](Cc3ccc(O)cc3)NC(=O)[C@H](CC(C)C)NC(=O)[C@H](CO)NC2=O)NC1=O)C(C)C` [Example 13, A21Q, A22-A45G, B(-18)-(-1)G, desB30 Human Insulin] was tested. Which “Relative insulin receptor binding” value did it give?
**A.** 13%

— patent publication US9260501B2, “Peptide extended insulins” (priority 2006, dated 2016)
